Legend:
[1] = Taste tests on minced meat by a panel of ten experienced testers; set-up: key: 0: no change in taste compared with a minced meat not containing potassium acetate; 1: change in taste compared with a minced meat not containing potassium acetate
[2] = as above; details: for maximum concentration before obtaining an impact on the taste: main-salt concentration 60%
[3] = as above; set-up: key: 0: no change in taste compared with a minced meat not containing potassium lactate; 1: change in taste compared with a minced meat not containing potassium lactate

Compound	Taste ([1]; potassium acetate (main-salt concentration 60%) at 0.05%)	Taste ([1]; potassium acetate (main-salt concentration 60%) at 0.1%)	Taste ([1]; potassium acetate (main-salt concentration 60%) at 0.15%)	Taste ([1]; potassium acetate (main-salt concentration 60%) at 0.2%)	Taste ([1]; potassium acetate (main-salt concentration 60%) at 0.25%)	concentration as from which an acidic taste is observed in the sample [2]	maximum concentration before obtaining an impact on the taste [2]	Taste ([3]; potassium lactate (main-salt concentration 60%) at 1%)	Taste ([3]; potassium lactate (main-salt concentration 60%) at 2%)	Taste ([3]; potassium lactate (main-salt concentration 60%) at 3%)
CC(=O)[O-].[K+] [potassium acetate]	0	1	1	1	1	≥ 0.1%	0.05%	–	–	–
CC(O)C(=O)[O-].[K+] (centres unmarked) [potassium lactate]	–	–	–	–	–	–	2%	0	0	1
